PubChem BioAssay AID504764 – Drosophila RNAi Screening Center, 2011
Assay: 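Knock-downs that raise or lower a Notch target reporter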 (primary screen). Cell system: Drosophila Kc167 cells. Knock-down reagent: long dsRNA against Drosophila genes. Time to read-out: about 5 days (4 days dsRNA, then 24 h after transfection). Challenge: transfection of constitutively active membrane-tethered Notch lacking the extracellular domain, read 24 h later. Detection: 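Firefly luciferase from an E(spl)m3 reporter with active Notch, plus control-promoter and uninduced reporter wells for normalisation; unnormalised counts, duplicate wells a and b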. Direction: induced reporter light, run 1, well a and induced reporter light, run 1, well b: higher = more light from the Notch target reporter with active Notch; control promoter light, run 1, well a and control promoter light, run 1, well b: higher = more light from the viral control promoter (cell number, transfection, viability); uninduced reporter light, run 1, well a: higher = more light from the Notch target reporter without active Notch. Call rule: 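Wells with low control signal or poorly matching duplicates excluded; duplicates averaged; per source plate, z beyond ±2 for induced/control log2 ratio or beyond ±1.8 for induced/uninduced marks a hit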. Meaning of the calls: active = modifier hit (raised or lowered Notch signal); inactive = not a hit.
In all, the deposit lists about 22,000 reagents; shown is a random part of those that have a named target and a result. In the full data, 403 (1.9%) are marked active. 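Unnormalised raw counts per well; ratio z-scores behind the hit calls and whether each hit raises or lowers signal are not deposited.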 Unmarked entries are inactive. Not stated in the record: the amount of reagent.

For Kpc2 [DRSC07635], the entry reads induced reporter light, run 1, well a = 32125; induced reporter light, run 1, well b = 31205; control promoter light, run 1, well a = 37995; control promoter light, run 1, well b = 30270; uninduced reporter light, run 1, well a = 2995.
Against Cftr [DRSC15872], the entry reads induced reporter light, run 1, well a = 1.57e5; induced reporter light, run 1, well b = 1.72e5; control promoter light, run 1, well a = 2.21e5; control promoter light, run 1, well b = 2.43e5; uninduced reporter light, run 1, well a = 14765.
Dfd [DRSC12593] showed induced reporter light, run 1, well a = 98240; induced reporter light, run 1, well b = 86515; control promoter light, run 1, well a = 91240; control promoter light, run 1, well b = 66155; uninduced reporter light, run 1, well a = 5270.
After knock-down of Bx [DRSC19350], the record shows induced reporter light, run 1, well a = 45665; induced reporter light, run 1, well b = 44545; control promoter light, run 1, well a = 28175; control promoter light, run 1, well b = 24005; uninduced reporter light, run 1, well a = 20060.

Reformatted: 2 of the entries above.
{"gene": "Dfd", "dsRNA": "DRSC12593", "induced reporter light, run 1, well a": 98240, "induced reporter light, run 1, well b": 86515, "control promoter light, run 1, well a": 91240, "control promoter light, run 1, well b": 66155, "uninduced reporter light, run 1, well a": 5270}
{"gene": "Bx", "dsRNA": "DRSC19350", "induced reporter light, run 1, well a": 45665, "induced reporter light, run 1, well b": 44545, "control promoter light, run 1, well a": 28175, "control promoter light, run 1, well b": 24005, "uninduced reporter light, run 1, well a": 20060}

Next entries:
For twin [DRSC15259], the entry reads induced reporter light, run 1, well a = 1.86e5; induced reporter light, run 1, well b = 2.13e5; control promoter light, run 1, well a = 2.22e5; control promoter light, run 1, well b = 2.56e5; uninduced reporter light, run 1, well a = 15232.
For twin [DRSC15831], the entry reads induced reporter light, run 1, well a = 1.40e5; induced reporter light, run 1, well b = 1.57e5; control promoter light, run 1, well a = 2.22e5; control promoter light, run 1, well b = 1.77e5; uninduced reporter light, run 1, well a = 12715.
Depletion of et [DRSC19582] gave: induced reporter light, run 1, well a = 93495; induced reporter light, run 1, well b = 1.09e5; control promoter light, run 1, well a = 1.24e5; control promoter light, run 1, well b = 1.12e5; uninduced reporter light, run 1, well a = 10790.
With knock-down of nes [DRSC11375] the results were induced reporter light, run 1, well a = 83605; induced reporter light, run 1, well b = 83885; control promoter light, run 1, well a = 70000; control promoter light, run 1, well b = 63970; uninduced reporter light, run 1, well a = 4290.
For LRR [DRSC06444], the entry reads induced reporter light, run 1, well a = 2.28e5; induced reporter light, run 1, well b = 2.26e5; control promoter light, run 1, well a = 2.94e5; control promoter light, run 1, well b = 2.63e5; uninduced reporter light, run 1, well a = 18438.
GstE3 [DRSC06673] gave induced reporter light, run 1, well a = 36200; induced reporter light, run 1, well b = 31360; control promoter light, run 1, well a = 47940; control promoter light, run 1, well b = 30760; uninduced reporter light, run 1, well a = 2480.
With knock-down of CycE [DRSC03295] the results were induced reporter light, run 1, well a = 1.96e5; induced reporter light, run 1, well b = 1.65e5; control promoter light, run 1, well a = 1.11e5; control promoter light, run 1, well b = 1.29e5; uninduced reporter light, run 1, well a = 15930.
Depletion of CycE [DRSC03296] gave: induced reporter light, run 1, well a = 96725; induced reporter light, run 1, well b = 1.12e5; control promoter light, run 1, well a = 81590; control promoter light, run 1, well b = 1.07e5; uninduced reporter light, run 1, well a = 8365.
